In article doi:10.1101/2022.09.13.507836:
These are yes or no findings as the source states them, for the method shown. In cells and extracts the contact can be indirect. Some binding calls cover weakened binding; strength is not graded here. Where a sequence is shown, tags or fusion partners need not be part of it.

Amino acid sequences for entries named in this document (tags omitted).
UniProt Q9SP32: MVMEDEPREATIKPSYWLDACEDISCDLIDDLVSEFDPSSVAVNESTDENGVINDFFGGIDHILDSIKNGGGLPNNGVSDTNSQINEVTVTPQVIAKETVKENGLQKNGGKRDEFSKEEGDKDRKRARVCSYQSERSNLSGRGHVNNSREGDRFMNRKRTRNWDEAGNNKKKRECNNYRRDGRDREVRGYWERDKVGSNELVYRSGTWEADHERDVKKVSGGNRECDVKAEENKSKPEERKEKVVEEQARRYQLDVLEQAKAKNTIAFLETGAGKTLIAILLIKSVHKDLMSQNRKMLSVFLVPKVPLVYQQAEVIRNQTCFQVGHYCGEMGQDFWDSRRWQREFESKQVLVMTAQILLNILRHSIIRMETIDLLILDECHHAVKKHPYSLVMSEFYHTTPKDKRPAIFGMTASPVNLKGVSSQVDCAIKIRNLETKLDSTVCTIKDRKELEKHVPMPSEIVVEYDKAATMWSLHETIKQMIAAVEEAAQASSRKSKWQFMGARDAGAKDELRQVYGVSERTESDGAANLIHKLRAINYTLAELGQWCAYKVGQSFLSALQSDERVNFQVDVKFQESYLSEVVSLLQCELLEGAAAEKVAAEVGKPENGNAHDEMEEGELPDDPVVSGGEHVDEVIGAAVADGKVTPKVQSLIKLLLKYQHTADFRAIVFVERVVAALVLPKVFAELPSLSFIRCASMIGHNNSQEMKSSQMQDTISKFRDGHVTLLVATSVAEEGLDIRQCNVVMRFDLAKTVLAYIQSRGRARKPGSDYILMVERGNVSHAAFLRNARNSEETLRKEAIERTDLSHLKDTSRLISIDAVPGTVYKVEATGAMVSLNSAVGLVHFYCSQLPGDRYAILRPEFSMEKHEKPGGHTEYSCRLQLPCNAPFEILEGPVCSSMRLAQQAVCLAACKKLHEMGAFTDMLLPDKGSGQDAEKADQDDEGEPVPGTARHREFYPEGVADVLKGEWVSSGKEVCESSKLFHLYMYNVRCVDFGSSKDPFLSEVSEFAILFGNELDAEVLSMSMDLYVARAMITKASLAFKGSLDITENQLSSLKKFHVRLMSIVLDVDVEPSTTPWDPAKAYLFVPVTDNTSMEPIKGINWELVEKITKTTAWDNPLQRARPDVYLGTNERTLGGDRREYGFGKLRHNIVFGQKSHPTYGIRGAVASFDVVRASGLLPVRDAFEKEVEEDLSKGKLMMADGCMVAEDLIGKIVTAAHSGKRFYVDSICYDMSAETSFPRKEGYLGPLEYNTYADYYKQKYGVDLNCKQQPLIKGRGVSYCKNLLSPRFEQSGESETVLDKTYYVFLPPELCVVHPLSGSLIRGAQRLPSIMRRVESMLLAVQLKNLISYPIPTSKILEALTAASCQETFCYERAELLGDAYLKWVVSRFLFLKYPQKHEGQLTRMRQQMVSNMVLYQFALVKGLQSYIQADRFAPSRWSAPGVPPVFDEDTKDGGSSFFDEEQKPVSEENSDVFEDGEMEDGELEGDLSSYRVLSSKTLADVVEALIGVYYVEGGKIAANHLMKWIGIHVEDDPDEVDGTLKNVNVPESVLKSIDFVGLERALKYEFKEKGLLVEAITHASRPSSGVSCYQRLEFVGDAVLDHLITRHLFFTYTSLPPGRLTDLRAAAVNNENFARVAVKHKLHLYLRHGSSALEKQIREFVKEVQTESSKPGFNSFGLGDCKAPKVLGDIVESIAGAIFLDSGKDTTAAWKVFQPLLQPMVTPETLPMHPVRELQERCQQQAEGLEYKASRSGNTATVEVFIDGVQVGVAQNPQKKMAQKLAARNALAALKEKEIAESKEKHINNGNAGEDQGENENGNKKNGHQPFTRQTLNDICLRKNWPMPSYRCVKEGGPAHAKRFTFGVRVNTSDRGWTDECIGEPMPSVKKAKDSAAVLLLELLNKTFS

B1: cYFP-HYL1 (protein, UniProt O04492 1-419)
chain: MTSTDVSSGVSNCYVFKSRLQEYAQKYKLPTPVYEIVKEGPSHKSLFQSTVILDGVRYNSLPGFFNRKAAEQSAAEVALRELAKSSELSQCVSQPVHETGLCKNLLQEYAQKMNYAIPLYQCQKVETLGRVTQFTCTVEIGGIKYTGAATRTKKDAEISAGRTALLAIQSDTKNNLANYNTQLTVLPCEKKTIQAAIPLKETVKTLKARKAQFKKKAQKGKRTVAKNPEDIIIPPQPTDHCQNDQSEKIETTPNLEPSSCMNGLKEAAFGSVETEKIETTPNLEPPSCMNGLKEAAFGSVETEKIETTPNLEPPSCMNGLKEAAFGSVETEKIETTPNLEPSSCMNGLKEAAFGSVETEKIETTPNLEPPSCMNGLKEAAFGSVETEKIETTPNLESSSCMSGLKEAAFGSVETEASHA

Experiments:
cYFP-SE (Arabidopsis) = target: T1, cYFP-SE (Arabidopsis) (UniProt Q9ZVD0); assay: split reporter
T1 sequence: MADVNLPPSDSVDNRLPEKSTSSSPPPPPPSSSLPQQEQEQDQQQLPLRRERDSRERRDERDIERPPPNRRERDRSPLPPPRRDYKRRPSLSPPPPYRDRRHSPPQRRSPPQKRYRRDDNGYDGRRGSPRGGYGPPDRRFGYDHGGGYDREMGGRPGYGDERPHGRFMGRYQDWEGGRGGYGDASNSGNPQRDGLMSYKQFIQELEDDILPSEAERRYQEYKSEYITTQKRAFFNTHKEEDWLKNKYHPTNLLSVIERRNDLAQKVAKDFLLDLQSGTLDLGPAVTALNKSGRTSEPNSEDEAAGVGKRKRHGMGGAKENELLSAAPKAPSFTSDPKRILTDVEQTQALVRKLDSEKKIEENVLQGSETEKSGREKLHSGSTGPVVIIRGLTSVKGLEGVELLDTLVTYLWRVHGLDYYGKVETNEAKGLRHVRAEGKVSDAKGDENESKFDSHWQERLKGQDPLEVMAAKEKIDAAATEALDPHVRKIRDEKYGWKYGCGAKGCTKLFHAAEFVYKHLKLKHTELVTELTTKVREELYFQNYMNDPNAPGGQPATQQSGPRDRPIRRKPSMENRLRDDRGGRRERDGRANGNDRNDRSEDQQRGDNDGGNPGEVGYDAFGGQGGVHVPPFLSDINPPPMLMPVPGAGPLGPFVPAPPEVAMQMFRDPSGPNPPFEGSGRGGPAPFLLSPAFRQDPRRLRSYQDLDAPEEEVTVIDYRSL

nYFP-DCL1 (Arabidopsis) = nYFP-DCL1 (Arabidopsis) (UniProt Q9SP32); assay: split reporter

binding (cYFP-SE (Arabidopsis))	binding (nYFP-DCL1 (Arabidopsis))	Molecule
binds		nYFP-DCL1 (from UniProt Q9SP32 1-1909)
	binds	B1
